In patent US20070077597A1 (published 2007):
These are yes or no findings as the source states them, for the method shown. Some results given as binding are weak or reduced against the parent protein; the word gives no strength.

By UniProt entry, the sequences of proteins in these tests, tags left out.
UniProt P02699: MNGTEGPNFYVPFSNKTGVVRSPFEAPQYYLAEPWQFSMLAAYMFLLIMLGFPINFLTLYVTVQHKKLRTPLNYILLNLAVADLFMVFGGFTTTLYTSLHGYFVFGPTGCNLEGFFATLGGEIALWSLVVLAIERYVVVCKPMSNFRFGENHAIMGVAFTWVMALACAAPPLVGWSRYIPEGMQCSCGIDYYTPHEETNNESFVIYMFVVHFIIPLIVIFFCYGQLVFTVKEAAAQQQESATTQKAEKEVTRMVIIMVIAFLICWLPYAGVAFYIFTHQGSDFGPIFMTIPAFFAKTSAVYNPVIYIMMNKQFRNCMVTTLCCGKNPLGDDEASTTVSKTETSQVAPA

Columns and labels:
[1] = biological target: light-activated bovine rhodopsin (metarhodopsin II) in rod outer segment membranes (bovine) (UniProt P02699); test: panning, LacI Gt library on immobilized ROS membranes
[2] = biological target: T1, human thrombin receptor (PAR1) (human, UniProt P25116 42-425); test: panning, G11 library, CHO expressed PAR1
T1 sequence (looked up): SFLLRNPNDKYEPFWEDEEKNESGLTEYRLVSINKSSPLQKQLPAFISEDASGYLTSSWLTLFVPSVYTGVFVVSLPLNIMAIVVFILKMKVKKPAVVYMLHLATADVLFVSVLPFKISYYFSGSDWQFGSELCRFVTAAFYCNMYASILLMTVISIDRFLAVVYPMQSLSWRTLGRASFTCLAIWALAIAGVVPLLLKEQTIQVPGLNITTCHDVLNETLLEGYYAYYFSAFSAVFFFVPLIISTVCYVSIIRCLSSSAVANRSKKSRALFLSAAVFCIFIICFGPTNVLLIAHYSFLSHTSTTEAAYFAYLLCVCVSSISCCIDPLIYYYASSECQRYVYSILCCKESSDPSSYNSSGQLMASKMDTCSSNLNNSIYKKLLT

[3] = biological target: T1, human thrombin receptor (PAR1); test: panning, LacI Gq library on CHO membranes with PAR1; competitor …
[4] = biological target: T1, human thrombin receptor (PAR1); test: panning, G11 library, recombinant reconstituted PAR1
[5] = biological target: T1, human thrombin receptor (PAR1); test: panning, LacI Gq library on purified PAR1 in lipid vesicles; competitor …
[6] = biological target: T1, human thrombin receptor (PAR1); test: panning, G11 library, Sf9 expressed PAR1
[7] = biological target: T1, human thrombin receptor (PAR1); test: panning, LacI Gq library on Sf9 membranes with PAR1; competitor …
[8] = biological target: T1, human thrombin receptor (PAR1); test: panning, G12 library on CHO-expressed PAR1; competitor …
[9] = biological target: T1, human thrombin receptor (PAR1); test: panning, G13 library on CHO-expressed PAR1; competitor …
[10] = biological target: T1, human thrombin receptor (PAR1); test: panning, Gt library on CHO-expressed PAR1; competitor …

For “LacI fusion clone 9 (Gt library) (from UniProt P03023 1-360)”, which binding [1] is on record?
The binding was “binds”.

With “LacI fusion clone 10 (Gt library) (from UniProt P03023 1-360)” as the substance, how does the binding [1] read?
Its binding is “binds”.

“LacI fusion clone C4-5 (Gq/G11 library) (from UniProt P03023 1-360)” was tested. Which binding [2] did it give?
The binding was “binds”.

And the binding [3]?
The binding was “binds”.

Which binding [2] does the source give for “LacI fusion clone C4-16 (Gq/G11 library) (from UniProt P03023 1-360)” here?
The binding was “binds”.

And the binding [3]?
Its binding is “binds”.

Which binding [2] does the source give for “LacI fusion clone C4-19 (Gq/G11 library) (from UniProt P03023 1-360)” here?
Its binding is “binds”.

And the binding [3]?
The binding was “binds”.

“LacI fusion clone C5-10 (Gq/G11 library) (from UniProt P03023 1-360)” was tested. Which binding [2] did it give?
Its binding is “binds”.

And the binding [3]?
The binding was “binds”.

For “LacI fusion clone C5-12 (Gq/G11 library) (from UniProt P03023 1-360)”, which binding [2] is on record?
Its binding is “binds”.

And the binding [3]?
The binding was “binds”.

What does the source list for “LacI fusion clone C7-3 (Gq/G11 library) (from UniProt P03023 1-360)”?
binding [2]: binds; binding [3]: binds

“LacI fusion clone C7-10 (Gq/G11 library) (from UniProt P03023 1-360)” was tested. Which binding [2] did it give?
The binding was “binds”.

And the binding [3]?
The binding was “binds”.

How did the binding [2] turn out when “LacI fusion clone C7-13 (Gq/G11 library) (from UniProt P03023 1-360)” was run?
The binding was “binds”.

What about the binding [3] of the same substance?
The binding was “binds”.

Which binding [2] does the source give for “LacI fusion clone C7-14 (Gq/G11 library) (from UniProt P03023 1-360)” here?
The binding was “binds”.

And the binding [3]?
The binding was “binds”.

With “LacI fusion clone R2-16 (Gq/G11 library) (from UniProt P03023 1-360)” as the substance, how does the binding [2] read?
Its binding is “binds”.

And the binding [4]?
The binding was “binds”.

And the binding [5]?
The binding was “binds”.

With “LacI fusion clone R2-17 (Gq/G11 library) (from UniProt P03023 1-360)” as the substance, how does the binding [2] read?
Its binding is “binds”.

And the binding [4]?
Its binding is “binds”.

What about the binding [5] of the same substance?
Its binding is “binds”.

“LacI fusion clone R2-18 (Gq/G11 library) (from UniProt P03023 1-360)” was tested. Which binding [2] did it give?
Its binding is “binds”.

What about the binding [4] of the same substance?
Its binding is “binds”.

And the binding [5]?
The binding was “binds”.

With “LacI fusion clone R2-20 (Gq/G11 library) (from UniProt P03023 1-360)” as the substance, how does the binding [2] read?
The binding was “binds”.

What about the binding [4] of the same substance?
Its binding is “binds”.

What about the binding [5] of the same substance?
The binding was “binds”.

What does the source list for “LacI fusion clone R2-21 (Gq/G11 library) (from UniProt P03023 1-360)”?
binding [2]: binds; binding [4]: binds; binding [5]: binds

“LacI fusion clone R3-37 (Gq/G11 library) (from UniProt P03023 1-360)” was tested. Which binding [2] did it give?
Its binding is “binds”.

And the binding [4]?
Its binding is “binds”.

What about the binding [5] of the same substance?
Its binding is “binds”.

What does the source list for “LacI fusion clone R3-38 (Gq/G11 library) (from UniProt P03023 1-360)”?
binding [4]: binds; binding [5]: binds

What does the source list for “LacI fusion clone R3-44 (Gq/G11 library) (from UniProt P03023 1-360)”?
binding [2]: binds; binding [4]: binds; binding [5]: binds

With “LacI fusion clone R3-46 (Gq/G11 library) (from UniProt P03023 1-360)” as the substance, how does the binding [5] read?
Its binding is “binds”.

For “LacI fusion clone S1-13 (Gq/G11 library) (from UniProt P03023 1-360)”, which binding [6] is on record?
Its binding is “binds”.

And the binding [7]?
Its binding is “binds”.

Which results are given for “LacI fusion clone S1-18 (Gq/G11 library) (from UniProt P03023 1-360)”?
binding [6]: binds; binding [7]: binds

Which binding [6] does the source give for “LacI fusion clone S1-23 (Gq/G11 library) (from UniProt P03023 1-360)” here?
Its binding is “binds”.

And the binding [7]?
The binding was “binds”.

How did the binding [6] turn out when “LacI fusion clone S2-26 (Gq/G11 library) (from UniProt P03023 1-360)” was run?
Its binding is “binds”.

And the binding [7]?
The binding was “binds”.

What does the source list for “LacI fusion clone S2-30 (Gq/G11 library) (from UniProt P03023 1-360)”?
binding [6]: binds; binding [7]: binds

Which binding [6] does the source give for “LacI fusion clone S2-36 (Gq/G11 library) (from UniProt P03023 1-360)” here?
The binding was “binds”.

And the binding [7]?
The binding was “binds”.

With “LacI fusion clone S3-6 (Gq/G11 library) (from UniProt P03023 1-360)” as the substance, how does the binding [6] read?
The binding was “binds”.

And the binding [7]?
Its binding is “binds”.

“LacI fusion clone S3-8 (Gq/G11 library) (from UniProt P03023 1-360)” was tested. Which binding [6] did it give?
The binding was “binds”.

And the binding [7]?
The binding was “binds”.

Which binding [6] does the source give for “LacI fusion clone S3-10 (Gq/G11 library) (from UniProt P03023 1-360)” here?
The binding was “binds”.

And the binding [7]?
The binding was “binds”.

What does the source list for “LacI fusion clone S3-15 (Gq/G11 library) (from UniProt P03023 1-360)”?
binding [6]: binds; binding [7]: binds

Which results are given for “LacI fusion … (G11 library) (from UniProt P03023 1-360)”?
binding [2]: binds; binding [6]: binds; binding [4]: binds

Which binding [8] does the source give for “LacI fusion … (G12 library, panned on PAR1) (from UniProt P03023 1-360)” here?
Its binding is “binds”.

With “LacI fusion … (G13 library, panned on PAR1) (from UniProt P03023 1-360)” as the substance, how does the binding [9] read?
The binding was “binds”.

“LacI fusion … (Gt library, panned on PAR1) (from UniProt P03023 1-360)” was tested. Which binding [10] did it give?
The binding was “binds”.
